# Results from article PMC7862700.
# Some of the results follow. The exact form of the protein is not confirmed.
# Target: T1, ETV4 (UniProt P43268)
# T1 sequence: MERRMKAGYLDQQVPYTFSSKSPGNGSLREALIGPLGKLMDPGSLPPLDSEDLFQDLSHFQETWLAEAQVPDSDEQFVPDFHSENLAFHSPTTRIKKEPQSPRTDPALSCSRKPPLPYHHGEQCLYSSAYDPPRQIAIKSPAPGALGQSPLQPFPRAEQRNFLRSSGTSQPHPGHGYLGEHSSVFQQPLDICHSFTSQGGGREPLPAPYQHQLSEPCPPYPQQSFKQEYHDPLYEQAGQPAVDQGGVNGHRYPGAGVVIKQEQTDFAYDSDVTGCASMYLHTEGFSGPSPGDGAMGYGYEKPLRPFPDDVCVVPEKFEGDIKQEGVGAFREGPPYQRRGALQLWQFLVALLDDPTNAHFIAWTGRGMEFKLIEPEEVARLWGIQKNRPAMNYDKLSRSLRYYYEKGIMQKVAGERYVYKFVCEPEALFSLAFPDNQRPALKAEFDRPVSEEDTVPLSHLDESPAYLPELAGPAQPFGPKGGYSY
# Assay: DAPPL (digital affinity profiling via proximity ligation, sequencing)
# Settings: 10 mM Tris-HCl pH 7.5, 50 mM NaCl, 1 mM DTT, 4% glycerol, room temperature, 30 min; GST-TFs on glutathione beads, 16-mer random dsDNA library, 0.1% …; high values mean tight binding; double strand, one strand shown; scale: fold enrichment (6-mer frequency, TF over GST control)
row,Sequence,binding signal
1,AATGTA,1.13
2,CATCCT,1.61
3,GTAATA,1.23
4,AGTGCT,1.5
5,AATGAA,1.15
6,TGGTCC,1.25
7,CAACTG,1.11
8,TAGCTC,1.23
9,CTCACA,1.43
10,GCTCTT,1.62
11,TCGTCT,1.41
12,TGGGAT,1.13
13,CCTTGA,1.13
14,CATTCG,1.24
15,AAGCAA,1.02
16,AGCCTT,1.06
17,ACGTTG,1.05
18,GGATGT,1.87
19,TGTACC,1.47
20,ACGACA,1.15

row,Sequence,binding signal
1,ATATAT,1.45
2,TCACAA,1.15
3,GGCTAT,0.979
4,ACCCCC,1.2
5,CGAATC,1.1
6,ATGTGC,1.11
7,TGCGTT,1.16
8,AAGATC,1
9,AACACG,1.19
10,ATGGCA,1.24
11,TGTCAA,1.08
12,ATCCCA,1.06
13,ATATCC,2.83
14,GGTTCA,0.978
15,TTGAGC,1.08
16,ACGACG,1.19
17,TGTACG,1.21
18,AATTTC,1.75
19,ACACCC,1.09
20,CAAGAT,0.954

# Copied from the listing (2 entries):
row,Sequence,binding signal
7,CAACTG,1.11
8,TAGCTC,1.23
